Library screen at single concentrations

By UniProt entry, the sequences of proteins in these tests, tags left out. Residues count along the entry.
UniProt A4I591, 1-473: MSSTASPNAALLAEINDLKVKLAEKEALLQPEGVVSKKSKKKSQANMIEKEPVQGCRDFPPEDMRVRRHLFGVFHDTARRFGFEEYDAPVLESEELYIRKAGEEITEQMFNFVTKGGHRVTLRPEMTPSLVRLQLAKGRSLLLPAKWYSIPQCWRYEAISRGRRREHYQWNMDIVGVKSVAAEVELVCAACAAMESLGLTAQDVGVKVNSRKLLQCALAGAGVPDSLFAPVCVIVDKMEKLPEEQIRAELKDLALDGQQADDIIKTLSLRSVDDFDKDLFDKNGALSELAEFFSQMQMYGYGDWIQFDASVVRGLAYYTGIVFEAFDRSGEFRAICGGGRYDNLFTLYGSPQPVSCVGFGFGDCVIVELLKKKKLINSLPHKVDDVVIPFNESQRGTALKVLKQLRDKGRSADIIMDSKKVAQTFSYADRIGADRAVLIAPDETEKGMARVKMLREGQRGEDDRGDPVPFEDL
UniProt I6X8D2, whole entry: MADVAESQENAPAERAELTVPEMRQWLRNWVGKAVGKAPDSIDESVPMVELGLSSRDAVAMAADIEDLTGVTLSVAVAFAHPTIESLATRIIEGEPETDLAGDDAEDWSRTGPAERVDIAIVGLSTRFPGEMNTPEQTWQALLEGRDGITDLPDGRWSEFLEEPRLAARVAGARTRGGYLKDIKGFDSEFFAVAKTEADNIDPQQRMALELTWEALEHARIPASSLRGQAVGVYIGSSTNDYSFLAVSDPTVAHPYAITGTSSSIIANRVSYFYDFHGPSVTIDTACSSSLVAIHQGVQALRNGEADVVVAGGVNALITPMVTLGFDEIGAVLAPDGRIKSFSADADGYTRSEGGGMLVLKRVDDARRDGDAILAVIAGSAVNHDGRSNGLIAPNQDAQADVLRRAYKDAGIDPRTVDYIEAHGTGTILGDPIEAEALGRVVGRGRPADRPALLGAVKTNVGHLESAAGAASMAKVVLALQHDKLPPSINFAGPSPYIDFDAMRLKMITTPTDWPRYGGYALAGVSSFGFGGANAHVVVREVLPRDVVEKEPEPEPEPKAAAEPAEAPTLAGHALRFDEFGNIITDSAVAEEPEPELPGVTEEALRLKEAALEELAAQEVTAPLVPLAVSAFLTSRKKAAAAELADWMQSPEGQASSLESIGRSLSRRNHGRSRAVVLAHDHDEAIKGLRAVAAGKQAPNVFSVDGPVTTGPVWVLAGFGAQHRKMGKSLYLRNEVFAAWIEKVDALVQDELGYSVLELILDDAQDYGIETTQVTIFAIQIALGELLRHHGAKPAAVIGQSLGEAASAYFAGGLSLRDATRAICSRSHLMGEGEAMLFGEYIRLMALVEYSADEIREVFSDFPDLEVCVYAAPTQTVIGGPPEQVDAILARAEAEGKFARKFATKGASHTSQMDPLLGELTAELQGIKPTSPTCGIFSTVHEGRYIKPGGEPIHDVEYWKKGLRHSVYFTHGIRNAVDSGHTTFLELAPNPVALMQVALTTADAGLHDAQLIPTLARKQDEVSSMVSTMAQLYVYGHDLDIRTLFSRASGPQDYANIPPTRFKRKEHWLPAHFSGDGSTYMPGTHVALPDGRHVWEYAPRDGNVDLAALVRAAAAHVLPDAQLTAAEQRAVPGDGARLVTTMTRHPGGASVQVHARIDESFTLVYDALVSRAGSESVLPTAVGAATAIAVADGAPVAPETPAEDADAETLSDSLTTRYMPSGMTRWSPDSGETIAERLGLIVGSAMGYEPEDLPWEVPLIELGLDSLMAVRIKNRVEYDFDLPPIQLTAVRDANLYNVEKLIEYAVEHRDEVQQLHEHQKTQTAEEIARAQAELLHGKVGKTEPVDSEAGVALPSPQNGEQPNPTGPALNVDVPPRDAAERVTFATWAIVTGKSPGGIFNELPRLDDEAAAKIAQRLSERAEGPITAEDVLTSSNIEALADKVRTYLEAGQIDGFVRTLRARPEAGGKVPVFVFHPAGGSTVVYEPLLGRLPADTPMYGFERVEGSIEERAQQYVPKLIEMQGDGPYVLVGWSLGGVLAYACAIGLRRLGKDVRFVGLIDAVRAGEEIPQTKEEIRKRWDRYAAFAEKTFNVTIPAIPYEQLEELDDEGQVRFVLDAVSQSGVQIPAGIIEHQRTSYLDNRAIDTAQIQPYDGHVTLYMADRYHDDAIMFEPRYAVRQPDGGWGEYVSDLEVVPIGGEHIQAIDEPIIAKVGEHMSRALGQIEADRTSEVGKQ

LiHisRS: 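Histidine-tRNA ligase, Leishmania infantum (UniProt A4I591). Enzyme assay of histidyl-tRNA synthetase; the read-out is not stated. Tested at 30 µM. Direction is inferred from retests: higher values go with stronger inhibition. The assay is labelled LdHisRS but filed under L. infantum. About 69,000 compounds were tested under these conditions; 0.6% (about 410) showed 50% or more at least once.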
Pks13 thioesterase: 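Polyketide synthase Pks13, Mycobacterium tuberculosis (UniProt I6X8D2). Enzyme assay of the thioesterase domain of polyketide synthase 13; the read-out is not stated. Tested at 30 µM. Higher reads as stronger inhibition (inferred from which compounds were picked for retests). Of about 67,000 compounds tested this way, about 300 (0.46%) reached 50% or more in at least one test.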

Results are given as percent effect. How 0% and 100% were set is not recorded. Most values in the screen are low, and negative values occur. This is an unselected part of the compounds tested. A dash means the value is not listed here; it may have been measured.

structure,LiHisRS,Pks13 thioesterase
CCc1nc(C(=O)N2CC(C(C)C)Nc3ccccc32)c[nH]1 (configuration not stated),13.92%,-15.94%
Cc1nn(C)cc1C(=O)N1CCCC(c2nccn2Cc2cscn2)C1 (configuration not stated),13.6%,-12.72%
Cn1cc(C2CC(=O)NC23CCN(c2ncc(F)cn2)CC3)cn1 (configuration not stated),15.09%,-1.809%
O=C1CC(c2ccccc2)c2cnn(C3CCCC3)c2N1 (configuration not stated),4.839%,-2.589%
Cc1nc(C2CCCN2Cc2cc(Cl)c3c(c2)OCCCO3)no1 (configuration not stated),29.79%,-3.508%
Cc1noc(C)c1CN1CCn2cc(CN3CCOCC3)nc2C1,23.08%,4.918%
CNS(=O)(=O)c1cccc(C(C)NCc2ccsc2)c1 (configuration not stated),8.036%,-20.26%
Cn1ccnc1CN1CC2(CCN(Cc3ccncc3)C2)C1,17.14%,-25.34%
O=C1COC2(CCN(CC3CCOCC3)CC2)CN1Cc1ccccn1,4.425%,3.173%
Cn1ccnc1CN1CCCC1Cn1cccn1 (configuration not stated),15.38%,-28.62%
O=C1NC(C(=O)NCc2cccnc2Oc2ccccc2F)CO1 (configuration not stated),10.84%,-11.36%
CC(C)c1nnc(CN2CC(n3cccn3)C2)o1,12%,-12.58%
O=C(c1ccc2c(c1)CCCC2)N1CCOCC1c1ncon1 (configuration not stated),16.67%,-1.169%
CCc1nc(CC)n(CC(=O)NCc2cccc(C)c2)n1,14.29%,4.544%
CC(C)(O)c1cc(CC2(NCc3ccccc3Cl)COC2)no1,25.68%,-30.49%
Cc1ccc(N2CC[C@H]3C[C@H](C(=O)NCc4ccco4)O[C@@H]3C2)cc1,12.5%,-20.39%
O=C(N1CCOCC1)N1CCc2ncc(CN3CCCCC3)n2CC1,4%,-7.703%
O=C(c1ccoc1)N1CCCn2cnc(COCC3CC3)c2C1,13.53%,-26.92%
CCc1ncc2c(n1)CN(C(=O)CCCc1ccc(OC)cc1)C2,10.75%,-13.17%
CC1(C)OC(=O)N(CC(=O)N2CCC(c3ccccc3F)C2)C1=O (configuration not stated),12.94%,-13.62%
Cc1cn(CC(=O)Nc2cc(C(C)(C)C)nn2C)cn1,6.557%,-17.8%
CNC(=O)CN1CCCC12CCN(C(=O)c1ccc(F)cc1)CC2,0%,-3.636%
COc1ccc(CN2CCc3c(nc(-c4ccccn4)[nH]c3=O)C2)cc1,7.292%,17.97%
Cc1noc(C)c1CCN1CCCC1c1nc2cc(F)ccc2[nH]1 (configuration not stated),11.2%,-
O=C(CCc1ccccc1)N1C[C@@H]2CN(Cc3ccoc3)CCO[C@@H]2C1,17%,-7.959%
CN1CCCc2cc(NC(=O)N3CCOC(C(N)=O)C3)ccc21 (configuration not stated),38.1%,3.934%
NC(=O)C1CCN(C(=O)NCc2ccc3c(c2)OCCO3)CC1,19.78%,-21.91%
CC(=O)N1C[C@@H](c2ccsc2)[C@@H]2CN(Cc3ccccc3)CC[C@@H]21,22.86%,-27.43%
O=C(c1cnc(NCCC2CCCO2)c(Cl)c1)N1CCCCC1 (configuration not stated),11.29%,-13.12%
Cn1cc(CNC(=O)C2COCC(=O)N2Cc2ccccc2)cn1 (configuration not stated),4.444%,-1.272%
Cc1n[nH]c(C2CN(CC(=O)NCCc3ccccc3)CCO2)n1 (configuration not stated),12.35%,34.31%
Cc1cnn(CC2CCCCN2C(=O)c2cccc(C(N)=O)c2)c1 (configuration not stated),2.655%,-4.556%
O=C(C1CCOCC1)N1CCC2(CCN(Cc3nccs3)CC2)CC1,17.43%,-8.474%
CS(=O)(=O)NC[C@H]1OC[C@@H]2CCN(C(=O)c3cccnc3)C[C@@H]21,17.14%,-12%
COc1ccc(OC)c(CN2CCC(c3cc(O)nc(C)n3)C2)c1 (configuration not stated),1.449%,-13.99%
CCOCCN1CCN(CC(O)c2ccc(C(F)(F)F)cc2)CC1 (configuration not stated),26.58%,-41.65%
CCC(=O)N1CCC(Cc2ccccc2-c2ccccc2F)(C(N)=O)C1 (configuration not stated),14%,4.142%
N#CC1=C(N)Nn2c(nnc2-c2ccccc2F)S1,13.16%,-
CC(C)NC(=O)C1CN(C(=O)COc2ccccc2)CC12CCOCC2 (configuration not stated),10.09%,-13.29%
Cn1cnnc1C1CCCN(C(=O)c2ccc3c(c2)OCCO3)C1 (configuration not stated),14.88%,-19.81%
O=C(NC1CCN(CC2CC2)C1)c1ccc(C(=O)c2cc[nH]c2)cc1 (configuration not stated),-4%,-22.81%
O=C(NC1CCS(=O)(=O)C1)c1ccc(SCc2cscn2)cc1 (configuration not stated),19.4%,-7.322%
Cc1nn(C)c(C)c1S(=O)(=O)N1CC[C@@H]2O[C@@H](C)C[C@H]2C1,7.692%,-29.32%
CCCNC(=O)CNC(=O)CCc1ccccc1Br,16.35%,-6.401%
Cc1cc(C(=O)N2CC[C@H]3[C@H]2CCN3S(C)(=O)=O)c(C)o1,-0.9009%,-1.677%
Cc1nc(C)n(CC2CCCN(CCOc3ccccc3C#N)C2)n1 (configuration not stated),-3.509%,-14.31%
O=C1NC2(CCN(Cc3ccccc3Cl)CC2)CC1c1ccccc1 (configuration not stated),20.51%,-35.2%
Cc1cc(NC(=O)NCCc2ccsc2)n(C)n1,12.5%,-5.526%
CCn1cc2c(n1)C(COCC1CC1)CN(C(=O)c1ccco1)C2 (configuration not stated),17.24%,-40.16%
CC(C)OCCOCc1cccc(NC(=O)NCCn2ccnc2)c1,8.491%,-42.44%
COC(=O)CNC(=O)C12CCC(=O)N1c1cc(Cl)ccc1S2 (configuration not stated),15.79%,-28.66%
COc1cccc(CC2CN(C3CCN(C(C)=O)CC3)CCO2)c1 (configuration not stated),10.38%,-3.456%
O=S1(=O)NC2(CCCN(Cc3ccc(Cl)cc3)C2)COc2ccccc21 (configuration not stated),11.03%,-2.798%
O=C1NCC2(CCCN(C(=O)Nc3ccc4scnc4c3)CC2)O1 (configuration not stated),18.33%,-30.46%
Cn1ccc(C(=O)NCc2ccc(N3CCCCCC3)nc2)cc1=O,10.34%,-13.06%
Cc1nn(C)c(C)c1CC(=O)N1CCCN(c2cccnn2)CC1,5.357%,-5.212%
CNC(=O)C1Cc2ccccc2CN1CCCc1ccccc1 (configuration not stated),-1.493%,-29.15%
O=C(NCC1CC1)c1cc(C2CC2)nc2onc(C3CCCNC3)c12 (configuration not stated),12.41%,-14.53%
COCCn1c2c(ccc1=O)CCN(C(=O)C1CC=CC1)CC2,15.38%,4.437%
CC(C)c1nnc2n1CCN(C(=O)c1ccc(S(C)(=O)=O)cc1)C2,8.264%,-18.32%
COCCNC(=O)CCNc1cc(C)nc(-c2ccncc2)n1,14.16%,-16.01%
O=C(NCCCN1CCOCC1)c1cc(-c2ccco2)[nH]n1,13.33%,-13.69%
COCCCNC(=O)c1c[nH]c2ccc(OC)cc12,9.091%,-18.84%
CC(C)(O)CN1CCN(C(=O)COCC2CC2)CC1,17.2%,1.587%
NC(=O)c1cccc(OCC(=O)NS(=O)(=O)c2ccc3c(c2)CCC3)c1,13.89%,-15.32%
CN1CCn2c(-c3cccc(F)c3)cnc2C12CCN(CC1CC1)CC2,14.53%,-0.315%
c1cncc(CN2CC[C@H]3O[C@@H](COCC4CCOCC4)CC[C@H]32)c1,14%,-5.382%
CC1CN(CC(=O)NCc2ccc(F)cc2)CCN1c1nccs1 (configuration not stated),6.667%,-3.984%
c1cc(-c2noc(CN3CCn4c(nnc4C4CC4)C3)n2)cs1,17.59%,-12.09%
c1cncc(-c2noc(CNc3ncnc4c3CCNCC4)n2)c1,10.75%,-32.4%
CCN1C[C@@H]2CN(Cc3cccs3)C[C@@H]2C1=O,15.53%,-42.24%
O=S(=O)(NC1CCCOC1)c1ccc(C(F)(F)F)nc1 (configuration not stated),8.85%,-11.53%
CC(C(=O)O)N1CCc2onc(-c3ccc4c(c3)OCO4)c2C1 (configuration not stated),22.58%,-10.1%
CC(C)NC(=O)c1nc(Cn2c(C(F)F)nc3ccccc32)no1,1.176%,-6.775%
Cc1cc(C)n(C2CN(CC(O)c3ccc(F)cc3)C2)n1 (configuration not stated),8.219%,-7.948%
CNc1cc(C)nc(C2CN(Cc3cc[nH]n3)CCO2)c1 (configuration not stated),8.333%,-45.52%
COc1ccc(F)cc1C(=O)N1CCC2(CCC(=O)N(C(C)C)C2)CC1,12.82%,-22.37%
Cn1cnnc1CNC(=O)c1ccc(Br)cc1O,19.35%,-15.97%
CC(C)=CCN1C[C@H]2CC[C@@H]1CN(C(=O)CSc1ccncc1)C2,10.83%,-0.689%
CN(C)C(=O)c1nc(CN2CC(Cc3ccccc3)CC2=O)no1 (configuration not stated),14.47%,-35.21%
O=S(=O)(c1cn[nH]c1)N1CCC(O)(CN2CCOCC2)C1 (configuration not stated),2.797%,-8.409%

The last 9 entries again:

structure	LiHisRS	Pks13 thioesterase
CC(C(=O)O)N1CCc2onc(-c3ccc4c(c3)OCO4)c2C1 (configuration not stated)	22.58%	-10.1%
CC(C)NC(=O)c1nc(Cn2c(C(F)F)nc3ccccc32)no1	1.176%	-6.775%
Cc1cc(C)n(C2CN(CC(O)c3ccc(F)cc3)C2)n1 (configuration not stated)	8.219%	-7.948%
CNc1cc(C)nc(C2CN(Cc3cc[nH]n3)CCO2)c1 (configuration not stated)	8.333%	-45.52%
COc1ccc(F)cc1C(=O)N1CCC2(CCC(=O)N(C(C)C)C2)CC1	12.82%	-22.37%
Cn1cnnc1CNC(=O)c1ccc(Br)cc1O	19.35%	-15.97%
CC(C)=CCN1C[C@H]2CC[C@@H]1CN(C(=O)CSc1ccncc1)C2	10.83%	-0.689%
CN(C)C(=O)c1nc(CN2CC(Cc3ccccc3)CC2=O)no1 (configuration not stated)	14.47%	-35.21%
O=S(=O)(c1cn[nH]c1)N1CCC(O)(CN2CCOCC2)C1 (configuration not stated)	2.797%	-8.409%

From ChEMBL document CHEMBL3988442, “University of Dundee, Small-Polar-MMV Screening Library” (2021).